Assay results taken from the supplement of paper PMC12024529.
Structures can show the parent of a compound that is named as a salt. Some of the results follow. Plates or batches differ in their baseline, so values are only roughly comparable.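 HEK293 lines stably express B-domain-deleted factor VIII fused to Gaussia luciferase, wild type or a misfolding-prone missense mutant. Scores equal triplicate-well mean luminescence minus DMSO mean, divided by DMSO standard deviation; scores of 2 or higher are hits. Low scores may indicate reduced secretion or worse cell viability.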

system: HEK293 p.N1941S BDD-FVIII-Gluc; test: secreted FVIII-Gluc luciferase Z-score vs DMSO control; higher = more FVIII-Gluc secretion; details: 5 µM; 24 h

| SMILES | secreted FVIII-Gluc luciferase Z-score |
| --- | --- |
| CC[C@@H]1/C=C(\C)C[C@H](C)C[C@H](OC)[C@H]2O[C@@](O)(C(=O)C(=O)N3CCCC[C@H]3C(=O)O[C@H](/C(C)=C/[C@@H]3CC[C@H](Cl)[C@H](OC)C3)[C@H](C)[C@@H](O)CC1=O)[C@H](C)C[C@@H]2OC [Pimecrolimus] | inactive: -1.48 |
| CC(CN(C)C)CN1c2ccccc2CCc2ccccc21 (centres undefined) [Trimipramine Maleate] | active: 2.13 |
| N=C(N)c1ccc(N=NNc2ccc(C(=N)N)cc2)cc1 [Diminazene Aceturate] | inactive: 0.653 |
| CC(=O)SCC(Cc1ccccc1)C(=O)NCC(=O)OCc1ccccc1 (centres undefined) [Racecadotril (Acetorphan)] | inactive: -5.42 |
| CS(=O)(=O)Nc1ccc([N+](=O)[O-])cc1Oc1ccccc1 [Nimesulide] | inactive: -0.977 |
| Cc1c(Cl)cccc1Nc1ccccc1C(=O)O [Tolfenamic acid] | inactive: 0.0941 |
| CC(=O)CCCCn1c(=O)c2c(ncn2C)n(C)c1=O [Pentoxifylline] | inactive: 0.945 |
| CCOC(=O)CCC(=O)O[C@H]1[C@H](O[C@@H]2[C@@H](C)[C@H](O[C@H]3C[C@@](C)(OC)[C@@H](O)[C@H](C)O3)[C@@H](C)C(=O)O[C@H](CC)[C@@](C)(O)[C@H](O)[C@@H](C)C(=O)[C@H](C)C[C@@]2(C)O)O[C@H](C)C[C@@H]1N(C)C [Erythromycin Ethylsuccinate] | inactive: -0.959 |
| O=C1CCc2ccc(OCCCCN3CCN(c4cccc(Cl)c4Cl)CC3)cc2N1 [Aripiprazole (Abilify)] | inactive: -2.99 |
| C=C1CC[C@H](O)C/C1=C/C=C1\CCC[C@]2(C)[C@@H]([C@H](C)/C=C/[C@H](C)C(C)C)CC[C@@H]12 [Vitamin D2] | inactive: -1.96 |
| CC[C@H](C)C(=O)O[C@H]1C[C@H](O)C=C2C=C[C@H](C)[C@H](CC[C@@H](O)C[C@@H](O)CC(=O)O)[C@H]21 [Pravastatin sodium] | inactive: 0.18 |
| CCOC(=O)C1=C(COCCN)NC(C)=C(C(=O)OC)C1c1ccccc1Cl (centres undefined) [Amlodipine (Norvasc)] | inactive: 0.0365 |
| C[C@]12CC[C@@H]3c4ccc(O)cc4CC[C@H]3[C@@H]1CC[C@@H]2OC(=O)CCC1CCCC1 [Estradiol Cypionate] | inactive: 1.3 |
| COc1cc([C@@H]2c3cc4c(cc3[C@@H](O[C@@H]3O[C@@H]5CO[C@@H](c6cccs6)O[C@H]5[C@H](O)[C@H]3O)[C@H]3COC(=O)[C@H]23)OCO4)cc(OC)c1O [Teniposide (Vumon)] | inactive: -6.15 |
| CC(C(=O)O)c1cccc(Oc2ccccc2)c1 (centres undefined) [Fenoprofen calcium hydrate] | inactive: -1.46 |
| O=C1O[C@H]([C@@H](O)CO)C([O-])=C1O.[Na+] [Sodium ascorbate] | inactive: 0.444 |
| COc1cccc2c1C(=O)c1c(O)c3c(c(O)c1C2=O)C[C@@](O)(C(C)=O)C[C@@H]3O[C@H]1C[C@H](N)[C@H](O)[C@H](C)O1 [Daunorubicin HCl (Daunomycin HCl)] | inactive: -2.44 |
| COC(=O)Nc1nc2cc(Sc3ccccc3)ccc2[nH]1 [Fenbendazole] | inactive: -7.17 |
| OC[C@@H](O)[C@@H](O)[C@H](O)[C@@H](O)CO [Sorbitol (Glucitol)] | inactive: -0.435 |
| CCCc1nn(C)c2c(=O)[nH]c(-c3cc(S(=O)(=O)N4CCN(C)CC4)ccc3OCC)nc12 [Sildenafil citrate] | inactive: 0.0337 |

In a second layout: three of the compounds above
SMILES	secreted FVIII-Gluc luciferase Z-score
CC[C@@H]1/C=C(\C)C[C@H](C)C[C@H](OC)[C@H]2O[C@@](O)(C(=O)C(=O)N3CCCC[C@H]3C(=O)O[C@H](/C(C)=C/[C@@H]3CC[C@H](Cl)[C@H](OC)C3)[C@H](C)[C@@H](O)CC1=O)[C@H](C)C[C@@H]2OC [Pimecrolimus]	inactive: -1.48
Cc1c(Cl)cccc1Nc1ccccc1C(=O)O [Tolfenamic acid]	inactive: 0.0941
CC(=O)CCCCn1c(=O)c2c(ncn2C)n(C)c1=O [Pentoxifylline]	inactive: 0.945

Continuation:

| SMILES | secreted FVIII-Gluc luciferase Z-score |
| --- | --- |
| CCCNCC(O)COc1ccccc1C(=O)CCc1ccccc1 (centres undefined) [Propafenone (Rytmonorm)] | inactive: 0.545 |
| C=C[C@]1(C)C[C@@H](OC(=O)CS[C@@H]2C[C@H]3CC[C@@H](C2)N3C)[C@]2(C)[C@H](C)CC[C@]3(CCC(=O)[C@H]32)[C@@H](C)[C@@H]1O [Retapamulin] | inactive: -1.65 |
| C[N+](C)(C)CCOC(N)=O [Carbachol] | active: 2.02 |
| CN(C)CCC(c1ccccc1)c1ccccn1 (centres undefined) [Pheniramine Maleate] | inactive: 0.14 |
| Cc1ccc(Nc2nccc(N(C)c3ccc4c(C)n(C)nc4c3)n2)cc1S(N)(=O)=O [Pazopanib] | inactive: -1.51 |
| CN(C)CCOC(C)(c1ccccc1)c1ccccn1 (centres undefined) [Doxylamine Succinate] | inactive: -0.201 |
| CCOC(=O)C1=C(C)NC(C)=C(C(=O)OCC)C1c1ccccc1/C=C/C(=O)OC(C)(C)C [Lacidipine (Lacipil, Motens)] | inactive: -0.757 |
| CC1(C)[C@@H](O[C@H]2O[C@H](C(=O)O)[C@@H](O)[C@H](O)[C@H]2O[C@@H]2O[C@H](C(=O)O)[C@@H](O)[C@H](O)[C@H]2O)CC[C@]2(C)[C@H]3C(=O)C=C4[C@@H]5C[C@@](C)(C(=O)O)CC[C@]5(C)CC[C@@]4(C)[C@]3(C)CC[C@@H]12 [Ammonium Glycyrrhizinate] | inactive: -0.807 |
| CC1=C(/C=C/C(C)=C/C=C/C(C)=C/C=C/C=C(C)/C=C/C=C(C)/C=C/C2=C(C)CCCC2(C)C)C(C)(C)CCC1 [Beta Carotene] | inactive: 0.00802 |
| CC(C)(Sc1cc(C(C)(C)C)c(O)c(C(C)(C)C)c1)Sc1cc(C(C)(C)C)c(O)c(C(C)(C)C)c1 [Probucol] | inactive: -1.09 |
| COc1c(C)c2c(c(O)c1C/C=C(\C)CCC(=O)OCCN1CCOCC1)C(=O)OC2 [Mycophenolate mofetil (CellCept)] | inactive: -3.83 |
| C[C@]12CC[C@@H]3c4ccc(O)cc4CC[C@H]3[C@@H]1CCC2=O [Estrone] | inactive: 1.09 |
| CC1(C)O[C@@H]2C[C@H]3[C@@H]4CCC5=CC(=O)C=C[C@]5(C)[C@@]4(F)[C@@H](O)C[C@]3(C)[C@]2(C(=O)CO)O1 [Triamcinolone Acetonide] | active: 7.39 |
| CCC1=C(C)CN(C(=O)NCCc2ccc(S(=O)(=O)NC(=O)N[C@H]3CC[C@H](C)CC3)cc2)C1=O [Glimepiride] | inactive: 0.514 |
| CC1(C)O[C@@H]2C[C@H]3[C@@H]4CCC5=CC(=O)C=C[C@]5(C)[C@H]4[C@@H](O)C[C@]3(C)[C@]2(C(=O)CO)O1 [Desonide] | active: 4.88 |
| COc1ccc2[nH]c([S@@+]([O-])Cc3ncc(C)c(OC)c3C)nc2c1 [Esomeprazole sodium (Nexium)] | inactive: -0.521 |
| Cc1ccc(S(=O)(=O)NC(=O)NN2CC3CCCC3C2)cc1 (centres undefined) [Gliclazide (Diamicron)] | inactive: -0.904 |
| COc1ccc2c(c1)c(CC(=O)O)c(C)n2C(=O)c1ccc(Cl)cc1 [Indomethacin (Indocid, Indocin)] | inactive: -2.13 |
| Cc1c(-c2ccc(O)cc2)n(Cc2ccc(OCCN3CCCCCC3)cc2)c2ccc(O)cc12 [Bazedoxifene HCl] | inactive: -0.607 |
